Assay [1] addresses T1, biotinylated synthetic peptide derived from the C-terminus of SNX17 (457-470).
T1 sequence (peptide, biotin (position not stated)): HGNFAFEGIGDEDL
Put plainly: affinity purification with mass spectrometry.

Assay [2] shares this target. As to the kind of experiment: affinity purification with mass spectrometry. The source holds these as a separate data set.

Like-named read-outs stand apart in the source and are kept apart here. Results are given in words; binding and its absence hold for the method and conditions named. Binding seen in cells or lysates may run through a third protein. Here binding means that the protein was enriched with, or labelled near, the bait; the list need not be complete.

On to “endogenous COMMD10 (from UniProt Q9Y6G5 1-202)”, for which, in assay [1], the binding result was “binds”.
The same measure, in the same setting: as for “endogenous COMMD5 (from UniProt Q9GZQ3 1-224)”, the entry is “binds”; as for “endogenous COMMD9 (from UniProt Q9P000 1-198)”, “binds”.
With “endogenous CCDC22 (from UniProt O60826 1-627)”, in assay [1], the binding entry is given as “binds”.
Still for that read-out and setting: then “endogenous COMMD8 (from UniProt Q9NX08 1-183)”, with “binds”.
Same read-out and setting: as for “endogenous COMMD4 (from UniProt Q9H0A8 1-199)”, the entry is “binds”; as for “endogenous PDLIM1 (from UniProt O00151 1-329)”, “binds”; as for “endogenous COMMD7 (from UniProt Q86VX2 1-200)”, “binds”.
Still for that read-out and setting: then “endogenous COMMD1 (from UniProt Q8N668 1-190)”, with “binds”; and “endogenous PDLIM7 (from UniProt Q9NR12 1-457)”, with “binds”; and “endogenous CCDC93 (from UniProt Q567U6 1-631)”, with “binds”.

B1: endogenous PDLIM4 (protein, UniProt P50479 1-330)
chain: MPHSVTLRGPSPWGFRLVGGRDFSAPLTISRVHAGSKAALAALCPGDLIQAINGESTELMTHLEAQNRIKGCHDHLTLSVSRPEGRSWPSAPDDSKAQAHRIHIDPEIQDGSPTTSRRPSGTGTGPEDGRPSLGSPYGQPPRFPVPHNGSSEATLPAQMSTLHVSPPPSADPARGLPRSRDCRVDLGSEVYRMLREPAEPVAAEPKQSGSFRYLQGMLEAGEGGDWPGPGGPRNLKPTASKLGAPLSGLQGLPECTRCGHGIVGTIVKARDKLYHPECFMCSDCGLNLKQRGYFFLDERLYCESHAKARVKPPEGYDVVAVYPNAKVELV
For the molecule B1, the binding result in assay [2] is listed as “binds”.

The values are drawn from publication doi:10.1101/2021.07.29.454387 (bioRxiv, 2021).
